In this assay the target is E6-associated protein (E6AP/UBE3A), endogenous (human (endogenous in HeLa)) (UniProt Q05086). Put plainly: co-IP; HeLa cell lysates immunoprecipitated with anti-E6AP antibody or mouse IgG, immunoblotted for CSN6; both proteins endogenous; 1 mg protein, overnight, Protein A or G beads. For orientation: In western blotting, separated proteins are transferred to a membrane and probed.

Sequences of proteins named here, by UniProt entry; tags and fusion partners are left off.
UniProt Q05086: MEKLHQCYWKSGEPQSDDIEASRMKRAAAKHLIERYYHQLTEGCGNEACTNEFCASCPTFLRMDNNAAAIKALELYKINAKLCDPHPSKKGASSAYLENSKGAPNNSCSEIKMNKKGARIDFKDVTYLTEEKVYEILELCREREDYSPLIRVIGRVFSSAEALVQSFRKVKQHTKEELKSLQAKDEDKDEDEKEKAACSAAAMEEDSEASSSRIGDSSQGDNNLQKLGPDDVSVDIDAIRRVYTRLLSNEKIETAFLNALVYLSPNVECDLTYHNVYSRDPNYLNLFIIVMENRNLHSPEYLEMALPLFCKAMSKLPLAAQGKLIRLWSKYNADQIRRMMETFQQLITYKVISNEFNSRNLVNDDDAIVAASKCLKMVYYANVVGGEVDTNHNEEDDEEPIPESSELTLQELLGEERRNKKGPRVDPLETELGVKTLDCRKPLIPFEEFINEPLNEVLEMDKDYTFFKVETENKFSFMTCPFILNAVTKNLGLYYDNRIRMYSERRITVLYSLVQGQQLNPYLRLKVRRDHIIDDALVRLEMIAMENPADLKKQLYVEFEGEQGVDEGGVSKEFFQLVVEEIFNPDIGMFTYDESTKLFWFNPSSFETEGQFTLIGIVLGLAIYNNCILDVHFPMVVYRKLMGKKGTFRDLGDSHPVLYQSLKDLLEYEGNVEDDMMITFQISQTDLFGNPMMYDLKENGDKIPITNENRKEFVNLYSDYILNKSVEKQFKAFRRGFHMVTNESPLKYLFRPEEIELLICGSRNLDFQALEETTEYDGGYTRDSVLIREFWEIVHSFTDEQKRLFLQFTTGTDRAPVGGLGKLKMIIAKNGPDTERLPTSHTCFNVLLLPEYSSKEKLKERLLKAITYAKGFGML
UniProt Q7L5N1: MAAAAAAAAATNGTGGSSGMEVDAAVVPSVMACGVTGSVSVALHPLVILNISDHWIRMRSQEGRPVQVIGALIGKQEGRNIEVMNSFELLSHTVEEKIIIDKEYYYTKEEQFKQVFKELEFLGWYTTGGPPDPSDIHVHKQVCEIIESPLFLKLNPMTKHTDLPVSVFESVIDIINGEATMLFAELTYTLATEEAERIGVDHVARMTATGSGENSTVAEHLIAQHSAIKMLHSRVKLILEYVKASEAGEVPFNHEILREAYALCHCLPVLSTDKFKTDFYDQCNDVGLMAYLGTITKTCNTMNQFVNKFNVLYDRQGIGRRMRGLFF

These are yes or no findings as the source states them, for the method shown. Binding seen in cells or lysates may run through a third protein. Some results given as binding are weak or reduced against the parent protein; the word gives no strength.

“COP9 signalosome subunit 6 (CSN6), endogenous (from UniProt Q7L5N1 1-327)”: the binding entry is given as “binds”.

The values are drawn from paper PMC4695042.
